# The other results are listed elsewhere or left out. These are further read-outs of the screen, such as a control signal, another cell line or another target. No call is given for them. Compounds called inactive in the main read-out are mostly missing here. The note in brackets gives the kind of curve behind each potency; many fits are weak.
# Assay: NCATS anti-infectives library activity on the primary C. elegans qHTS viability assay (AID 1745855)
# Conditions: C. elegans worm area imaging, day 7, measured here: worm number
# Procedure, shortened: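 Viability is taken from GFP fluorescence of PE254-GFP-FLuc C. elegans imaged by laser cytometry over 7 days. Ten L1 worms per well grow at 21 °C on TOP10 E. coli capsules with titrated compound; levamisole marks toxicity.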
row,Structure (SMILES),AC50
1,Cc1cccc(/C=N/Nc2cc(N3CCOCC3)nc(OCCc3ccccn3)n2)c1,"2.3 µM [falling, partial curve, poor fit]"
2,CN(C)CC(=O)Nc1ccc2[nH]c(=O)c3ccccc3c2c1,"20.5 µM [falling, partial curve]"
3,CC(=O)Nc1cccc(-n2c(=O)n(C3CC3)c(=O)c3c(Nc4ccc(I)cc4F)n(C)c(=O)c(C)c32)c1,"0.459 µM [falling, full curve, poor fit]"
4,CC(C)(CNC(=O)c1cccc(-c2noc(C(F)(F)F)n2)c1)c1coc(-c2ccccc2)n1,"0.728 µM [falling, full curve, poor fit]"
5,COc1ccc2c(c1)[C@@H]1C[C@]1(C(=O)N1[C@@H]3CC[C@H]1CN(C)C3)Cn1c-2c(C2CCCCC2)c2ccc(C(=O)NS(=O)(=O)N(C)C)cc21,"20.5 µM [falling, partial curve]"
6,NS(=O)(=O)c1ccc(NC(=O)Nc2ccc(F)cc2)cc1,"20.5 µM [falling, partial curve]"
7,O=c1c(O[C@@H]2O[C@H](CO)[C@H](O)[C@H](O)[C@H]2O)c(-c2ccc(O)c(O)c2)oc2cc(O)cc(O)c12,"14.5 µM [falling, partial curve, poor fit]"
8,O=C(/C=C\n1cnc(-c2cc(C(F)(F)F)cc(C(F)(F)F)c2)n1)NNc1cnccn1,"29 µM [falling, single point]"
9,Cc1cnc(NC(=O)c2cc(S(=O)(=O)N(C)C)ccc2N2CCCC2)s1,"4.09 µM [falling, full curve, poor fit]"
10,CC(C)C[C@H](NC(=O)[C@H](Cc1ccccc1)NC(=O)c1cnccn1)B(O)O,"1.15 µM [falling, partial curve, poor fit]"
11,O=P(O)(O)C(O)(Cn1ccnc1)P(=O)(O)O,"1.63 µM [falling, single point]"
12,O=c1[nH]cc(F)c(=O)[nH]1,"0.916 µM [falling, full curve]"
13,Cc1cc(/C=C/C#N)cc(C)c1Nc1ccnc(Nc2ccc(C#N)cc2)n1,"14.5 µM [falling, partial curve, poor fit]"
14,C[n+]1cccc(C(=O)[O-])c1,"25.8 µM [falling, single point]"
15,Cc1onc(-c2ccccc2)c1C(=O)N1CCN(c2ccc([N+](=O)[O-])cc2Cl)CC1,"0.916 µM [falling, partial curve, poor fit]"
16,O=C(/C=C\n1cnc(-c2cc(C(F)(F)F)cc(C(F)(F)F)c2)n1)NNc1ccccn1,"25.8 µM [falling, single point]"
17,CC(=O)N1c2ccc(-c3ccc(C(=O)O)cc3)cc2[C@H](Nc2ccc(Cl)cc2)C[C@@H]1C,"25.8 µM [falling, single point]"
18,CN(C)c1nc2c(Br)c(Br)c(Br)c(Br)c2n1CC(=O)O,"23 µM [falling, single point]"
19,COc1c(C)c2c(c(O)c1C/C=C(\C)CCC(=O)OCCN1CCOCC1)C(=O)OC2,"4.59 µM [falling, partial curve, poor fit]"
20,CC(C)c1nc(CN(C)C(=O)N[C@@H](CCN2CCOCC2)C(=O)N[C@H](CC[C@H](Cc2ccccc2)NC(=O)OCc2cncs2)Cc2ccccc2)cs1,"23 µM [falling, single point]"
21,Cc1cc(/C=C\c2ccc3cc(N(C)C)ccc3[n+]2C)c(C)n1-c1ccccc1,"9.16 µM [falling, partial curve, poor fit]"
22,C=CC[C@@H]1/C=C(\C)C[C@H](C)C[C@H](OC)[C@H]2O[C@@](O)(C(=O)C(=O)N3CCCC[C@H]3C(=O)O[C@H](/C(C)=C/[C@@H]3CC[C@@H](O)[C@H](OC)C3)[C@H](C)[C@@H](O)CC1=O)[C@H](C)C[C@@H]2OC,"5.15 µM [falling, partial curve, poor fit]"
23,CN1C(N)=N[C@](C)(c2cc(NC(=O)c3ccc(F)cn3)ccc2F)CS1(=O)=O,"20.5 µM [falling, partial curve, poor fit]"
24,CC(C)C[C@H](NC(=O)CNC(=O)c1cc(Cl)ccc1Cl)B(O)O,"0.728 µM [falling, full curve, poor fit]"
25,Cc1noc2c1-c1ccccc1C(c1ccc(Cl)cc1)=N[C@H]2CC(N)=O,"1.03 µM [falling, partial curve, poor fit]"

# 2 of the compounds above, tab-delimited.
row	Structure (SMILES)	AC50
12	O=c1[nH]cc(F)c(=O)[nH]1	0.916 µM [falling, full curve]
17	CC(=O)N1c2ccc(-c3ccc(C(=O)O)cc3)cc2[C@H](Nc2ccc(Cl)cc2)C[C@@H]1C	25.8 µM [falling, single point]

# Reference: PubChem BioAssay (NCATS)
